Source: patent US12473284B2, “Small molecule inhibitors of ULK1” (Memorial Sloan Kettering Cancer Center, priority 2019, dated 2025)
For at least one compound, name, drawing or mass did not settle the structure.

The chains behind the UniProt entries cited, without tags or fusion partners. Where a name states a change or a piece, a line headed by the entry shows the natural chain unless it says otherwise.
UniProt P50613: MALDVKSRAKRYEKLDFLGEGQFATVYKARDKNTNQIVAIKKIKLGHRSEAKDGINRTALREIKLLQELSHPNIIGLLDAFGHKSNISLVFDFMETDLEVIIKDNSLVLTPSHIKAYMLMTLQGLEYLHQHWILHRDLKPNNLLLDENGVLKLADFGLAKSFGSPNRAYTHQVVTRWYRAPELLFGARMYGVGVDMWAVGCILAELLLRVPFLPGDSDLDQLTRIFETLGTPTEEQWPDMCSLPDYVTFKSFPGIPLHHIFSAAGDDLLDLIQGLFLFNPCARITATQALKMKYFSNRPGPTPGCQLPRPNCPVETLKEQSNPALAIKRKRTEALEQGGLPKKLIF

Biological target: protein kinase CDK7 (Homo sapiens (Human), UniProt P50613)
Test: Inhibition of protein kinase CDK7
Type: biochemical

COC(=O)[C@@H](N)[C@H]1CC[C@H](C(=O)Nc2ccnc3[nH]c(-c4ccccc4)cc23)CC1 [MSK-A182, (S)-methyl 2-amino-2-((1r,4S)-4-((2-phenyl-1H-pyrrolo[2,3-b]pyridin-4-yl)carbamoyl)cyclo-hexyl)acetate]
inhibition of protein kinase CDK7 (potency): low nM potency
